# For some assays here: Negatives hold for the conditions tested. For some assays here: Construct, isoform or probe ends are uncertain for at least one entry.
# What was measured:
# [1] = molecular target: PDGF-AA (long form mature A-chain homodimer) (Homo sapiens) (UniProt P04085); assay: inhibition of the protein; conditions: no inhibition of 125I-PDGF-AA binding to alpha-receptor, data not shown, purified recombinant protein, protein details: R&D Systems, expressed in E. coli, carrier-free, single-stranded DNA, dose not given here
# [2] = molecular target: PDGF-BB (mature B-chain homodimer) (Homo sapiens) (UniProt P01127); assay: inhibition of the protein; conditions: 3'-3' inverted T at nt 39; no effect on receptor binding or mitogenesis; purified recombinant protein; protein details: R&D Systems, expressed in E. coli, carrier-free; single-stranded DNA; dose not given here
# thrombin (Homo sapiens) = assay: binding assay; conditions: 3'-3' inverted T at nt 39; CITED; stated without experimental detail; single-stranded DNA
sequence,measurement,setting,value
TACTCAGGGCACTGCAAGCAATTGTGGTCCCAATGGGCTGAGTAT [41t],functional effect of the aptamer,"[1]; 3'-3' inverted T at nt 45, variant of ligand 41 full length",not active
TGGGAGGGCGCGTTCTTCGTGGTTACTTTTAGTCCCGT [20t],functional effect of the aptamer,"[1]; 3'-3' inverted T at nt 38, variant of ligand 20 full length",not active
CAGTCCGTGGTAGGGCAGGTTGGGGTGACTTCGTGGAAT [T39 thrombin ligand],functional effect of the aptamer,[2],not active
same,Kd,thrombin (Homo sapiens),0.5 nM
CACAGGCTACGGCACGTAGAGCATCACCATGATCCTGTGT [36t],functional effect of the aptamer,"[1]; 3'-3' inverted T at nt 40, variant of ligand 36 full length",not active
